# Measurements: the supplement of paper PMC12595434, “Development of retinoid nuclear receptor pathway antagonists through targeting aldehyde dehydrogenase 1A3” (iScience, 2025)
# Sequences of proteins named here, by UniProt entry; tags and fusion partners are left off. A change or cut given only in a name is not applied to a line headed by its entry.
# UniProt O43715: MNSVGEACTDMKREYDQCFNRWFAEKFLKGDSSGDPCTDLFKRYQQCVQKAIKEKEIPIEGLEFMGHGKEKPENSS
# UniProt O75506: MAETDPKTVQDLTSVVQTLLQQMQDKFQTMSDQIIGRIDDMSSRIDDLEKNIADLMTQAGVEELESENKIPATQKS
# UniProt O60563, whole entry: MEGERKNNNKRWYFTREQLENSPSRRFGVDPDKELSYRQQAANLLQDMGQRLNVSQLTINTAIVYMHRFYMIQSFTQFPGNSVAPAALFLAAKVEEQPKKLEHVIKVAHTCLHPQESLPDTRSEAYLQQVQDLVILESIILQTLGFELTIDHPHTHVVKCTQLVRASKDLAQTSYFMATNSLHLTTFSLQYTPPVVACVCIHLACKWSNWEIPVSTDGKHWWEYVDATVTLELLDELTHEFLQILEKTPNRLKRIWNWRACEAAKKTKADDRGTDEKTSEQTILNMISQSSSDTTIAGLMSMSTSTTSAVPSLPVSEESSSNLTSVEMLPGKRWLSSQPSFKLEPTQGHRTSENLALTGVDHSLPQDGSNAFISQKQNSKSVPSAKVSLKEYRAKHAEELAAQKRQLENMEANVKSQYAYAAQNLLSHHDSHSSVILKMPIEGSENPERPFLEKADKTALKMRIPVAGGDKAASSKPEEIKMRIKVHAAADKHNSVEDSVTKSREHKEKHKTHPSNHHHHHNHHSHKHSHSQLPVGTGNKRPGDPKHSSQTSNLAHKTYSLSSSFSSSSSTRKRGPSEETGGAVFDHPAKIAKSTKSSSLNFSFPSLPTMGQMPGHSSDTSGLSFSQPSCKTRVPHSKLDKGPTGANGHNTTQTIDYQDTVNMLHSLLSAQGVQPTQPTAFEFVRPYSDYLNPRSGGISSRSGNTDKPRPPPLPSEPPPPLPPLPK
# UniProt O60518: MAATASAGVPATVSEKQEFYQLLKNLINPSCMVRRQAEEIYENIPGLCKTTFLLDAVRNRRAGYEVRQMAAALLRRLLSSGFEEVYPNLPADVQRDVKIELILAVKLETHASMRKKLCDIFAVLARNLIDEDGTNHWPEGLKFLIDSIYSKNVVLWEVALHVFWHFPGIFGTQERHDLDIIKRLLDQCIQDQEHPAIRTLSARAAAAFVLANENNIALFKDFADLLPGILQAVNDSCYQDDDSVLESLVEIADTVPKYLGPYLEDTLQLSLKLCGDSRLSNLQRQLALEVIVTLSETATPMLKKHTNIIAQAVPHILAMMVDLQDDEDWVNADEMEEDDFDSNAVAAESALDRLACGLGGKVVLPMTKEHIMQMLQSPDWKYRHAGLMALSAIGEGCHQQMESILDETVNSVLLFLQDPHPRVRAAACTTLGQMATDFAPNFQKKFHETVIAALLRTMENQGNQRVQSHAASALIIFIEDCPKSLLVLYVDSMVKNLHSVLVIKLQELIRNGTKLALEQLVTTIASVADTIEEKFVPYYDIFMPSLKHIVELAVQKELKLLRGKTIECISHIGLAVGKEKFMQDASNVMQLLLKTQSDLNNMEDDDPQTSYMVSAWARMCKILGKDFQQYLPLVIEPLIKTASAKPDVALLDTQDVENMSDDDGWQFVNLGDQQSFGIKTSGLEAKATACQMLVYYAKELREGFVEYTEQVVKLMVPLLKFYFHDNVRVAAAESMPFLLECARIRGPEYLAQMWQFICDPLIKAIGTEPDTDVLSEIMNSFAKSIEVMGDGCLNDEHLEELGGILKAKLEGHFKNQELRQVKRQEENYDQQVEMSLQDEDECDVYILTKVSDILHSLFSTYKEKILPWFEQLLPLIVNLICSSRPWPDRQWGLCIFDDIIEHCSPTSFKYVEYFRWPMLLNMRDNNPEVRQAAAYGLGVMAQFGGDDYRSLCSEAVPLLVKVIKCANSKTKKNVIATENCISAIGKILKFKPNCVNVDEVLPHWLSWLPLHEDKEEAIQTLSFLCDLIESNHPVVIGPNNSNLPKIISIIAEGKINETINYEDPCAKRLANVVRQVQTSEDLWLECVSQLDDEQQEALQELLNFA
# UniProt O75718: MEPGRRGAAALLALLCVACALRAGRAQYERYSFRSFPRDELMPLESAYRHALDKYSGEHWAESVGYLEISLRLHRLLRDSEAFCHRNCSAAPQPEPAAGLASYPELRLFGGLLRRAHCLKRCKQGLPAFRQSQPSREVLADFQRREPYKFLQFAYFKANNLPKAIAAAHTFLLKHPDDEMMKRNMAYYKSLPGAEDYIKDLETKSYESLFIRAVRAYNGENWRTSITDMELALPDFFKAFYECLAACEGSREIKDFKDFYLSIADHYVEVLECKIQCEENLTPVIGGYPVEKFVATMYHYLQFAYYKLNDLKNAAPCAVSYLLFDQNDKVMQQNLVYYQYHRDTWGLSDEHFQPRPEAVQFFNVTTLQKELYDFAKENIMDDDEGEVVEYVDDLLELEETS
# UniProt O43865, whole entry: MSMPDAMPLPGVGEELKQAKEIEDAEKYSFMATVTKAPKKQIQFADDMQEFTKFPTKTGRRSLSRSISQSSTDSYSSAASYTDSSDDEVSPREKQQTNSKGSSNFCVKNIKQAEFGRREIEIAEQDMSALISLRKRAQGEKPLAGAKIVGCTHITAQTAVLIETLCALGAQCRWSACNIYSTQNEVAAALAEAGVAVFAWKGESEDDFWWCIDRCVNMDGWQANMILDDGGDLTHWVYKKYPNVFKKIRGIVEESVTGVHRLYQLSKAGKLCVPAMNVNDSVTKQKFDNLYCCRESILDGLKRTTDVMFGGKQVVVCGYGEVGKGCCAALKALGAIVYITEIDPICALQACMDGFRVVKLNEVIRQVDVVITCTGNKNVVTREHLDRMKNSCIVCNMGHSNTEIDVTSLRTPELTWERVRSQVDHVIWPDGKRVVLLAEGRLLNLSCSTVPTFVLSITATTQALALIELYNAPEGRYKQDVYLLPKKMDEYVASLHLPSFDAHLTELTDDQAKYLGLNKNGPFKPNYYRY
# UniProt O60447: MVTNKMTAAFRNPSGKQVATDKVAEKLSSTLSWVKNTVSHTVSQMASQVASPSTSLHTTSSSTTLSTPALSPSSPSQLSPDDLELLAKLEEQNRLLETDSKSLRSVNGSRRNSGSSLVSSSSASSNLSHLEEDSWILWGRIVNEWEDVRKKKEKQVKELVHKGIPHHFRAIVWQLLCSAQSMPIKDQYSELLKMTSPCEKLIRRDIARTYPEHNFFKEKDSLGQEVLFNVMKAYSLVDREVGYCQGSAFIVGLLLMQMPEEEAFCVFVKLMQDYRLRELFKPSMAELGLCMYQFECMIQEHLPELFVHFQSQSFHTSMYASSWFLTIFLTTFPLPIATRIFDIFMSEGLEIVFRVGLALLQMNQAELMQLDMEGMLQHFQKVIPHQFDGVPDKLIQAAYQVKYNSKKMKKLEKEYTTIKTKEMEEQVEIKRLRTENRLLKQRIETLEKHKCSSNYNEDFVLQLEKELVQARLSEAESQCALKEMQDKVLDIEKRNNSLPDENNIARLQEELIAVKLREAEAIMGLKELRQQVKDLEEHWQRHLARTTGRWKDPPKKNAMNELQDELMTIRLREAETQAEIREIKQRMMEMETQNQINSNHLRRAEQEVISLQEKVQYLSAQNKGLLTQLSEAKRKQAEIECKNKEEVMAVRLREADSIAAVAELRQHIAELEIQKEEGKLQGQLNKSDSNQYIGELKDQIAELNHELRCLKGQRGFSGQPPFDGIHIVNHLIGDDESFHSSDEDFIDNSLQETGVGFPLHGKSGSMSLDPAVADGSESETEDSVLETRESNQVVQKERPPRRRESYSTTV
# UniProt O60739, whole entry: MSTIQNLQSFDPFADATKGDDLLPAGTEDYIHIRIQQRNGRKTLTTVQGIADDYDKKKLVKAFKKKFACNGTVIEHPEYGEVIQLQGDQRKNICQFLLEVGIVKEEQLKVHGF
# UniProt O60942: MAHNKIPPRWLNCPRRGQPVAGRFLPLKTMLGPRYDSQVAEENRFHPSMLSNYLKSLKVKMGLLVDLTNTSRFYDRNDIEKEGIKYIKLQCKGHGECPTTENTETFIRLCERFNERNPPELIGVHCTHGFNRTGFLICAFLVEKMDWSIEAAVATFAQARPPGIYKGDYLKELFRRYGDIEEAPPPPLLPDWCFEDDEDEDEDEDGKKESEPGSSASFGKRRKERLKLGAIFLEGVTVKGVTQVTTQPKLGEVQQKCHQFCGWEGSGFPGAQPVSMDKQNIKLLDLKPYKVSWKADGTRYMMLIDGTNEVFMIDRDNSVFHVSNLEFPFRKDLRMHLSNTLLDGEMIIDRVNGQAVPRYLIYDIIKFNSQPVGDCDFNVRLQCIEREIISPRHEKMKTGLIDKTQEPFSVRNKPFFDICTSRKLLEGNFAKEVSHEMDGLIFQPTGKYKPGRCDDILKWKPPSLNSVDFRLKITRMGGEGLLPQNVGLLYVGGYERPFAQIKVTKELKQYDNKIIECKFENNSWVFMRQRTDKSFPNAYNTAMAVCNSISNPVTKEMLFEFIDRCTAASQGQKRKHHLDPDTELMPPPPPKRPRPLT
# UniProt O75354: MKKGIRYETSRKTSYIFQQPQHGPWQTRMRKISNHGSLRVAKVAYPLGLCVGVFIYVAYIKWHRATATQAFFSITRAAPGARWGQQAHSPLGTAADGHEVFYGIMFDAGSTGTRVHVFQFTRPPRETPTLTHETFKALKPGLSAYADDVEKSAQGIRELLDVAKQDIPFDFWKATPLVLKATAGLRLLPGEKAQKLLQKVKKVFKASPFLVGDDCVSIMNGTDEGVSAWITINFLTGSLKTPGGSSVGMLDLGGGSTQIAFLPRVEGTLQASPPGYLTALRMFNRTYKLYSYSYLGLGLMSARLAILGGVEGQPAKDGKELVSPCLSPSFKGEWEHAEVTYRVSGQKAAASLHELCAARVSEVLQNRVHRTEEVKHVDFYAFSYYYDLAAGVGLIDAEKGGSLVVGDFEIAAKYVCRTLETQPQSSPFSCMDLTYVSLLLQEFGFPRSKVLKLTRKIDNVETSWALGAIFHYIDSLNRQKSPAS
# UniProt O60231: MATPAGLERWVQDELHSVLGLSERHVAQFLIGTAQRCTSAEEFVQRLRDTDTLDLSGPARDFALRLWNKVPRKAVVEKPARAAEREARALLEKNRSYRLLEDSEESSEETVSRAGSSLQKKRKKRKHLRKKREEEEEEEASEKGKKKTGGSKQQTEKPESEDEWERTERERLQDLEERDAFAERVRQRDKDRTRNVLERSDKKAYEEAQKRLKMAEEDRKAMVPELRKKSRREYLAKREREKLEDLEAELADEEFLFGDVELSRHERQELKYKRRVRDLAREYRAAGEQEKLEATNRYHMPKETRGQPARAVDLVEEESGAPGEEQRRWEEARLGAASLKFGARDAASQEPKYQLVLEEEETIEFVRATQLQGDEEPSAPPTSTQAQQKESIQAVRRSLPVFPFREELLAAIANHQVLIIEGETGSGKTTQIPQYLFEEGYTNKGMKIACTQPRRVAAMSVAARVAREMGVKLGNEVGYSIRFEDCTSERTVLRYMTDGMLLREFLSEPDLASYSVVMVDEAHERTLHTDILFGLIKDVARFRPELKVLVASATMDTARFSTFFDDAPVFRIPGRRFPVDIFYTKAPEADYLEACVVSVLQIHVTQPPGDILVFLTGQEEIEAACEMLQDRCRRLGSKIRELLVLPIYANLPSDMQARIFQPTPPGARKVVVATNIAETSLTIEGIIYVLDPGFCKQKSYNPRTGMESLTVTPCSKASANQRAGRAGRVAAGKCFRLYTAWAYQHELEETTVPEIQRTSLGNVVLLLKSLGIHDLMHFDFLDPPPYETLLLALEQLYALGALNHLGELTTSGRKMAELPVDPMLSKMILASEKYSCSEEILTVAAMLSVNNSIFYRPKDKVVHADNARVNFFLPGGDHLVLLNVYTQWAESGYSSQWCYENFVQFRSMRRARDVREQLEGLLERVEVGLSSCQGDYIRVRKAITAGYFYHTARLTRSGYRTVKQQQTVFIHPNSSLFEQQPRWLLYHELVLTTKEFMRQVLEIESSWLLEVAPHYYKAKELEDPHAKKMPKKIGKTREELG
# UniProt O43665: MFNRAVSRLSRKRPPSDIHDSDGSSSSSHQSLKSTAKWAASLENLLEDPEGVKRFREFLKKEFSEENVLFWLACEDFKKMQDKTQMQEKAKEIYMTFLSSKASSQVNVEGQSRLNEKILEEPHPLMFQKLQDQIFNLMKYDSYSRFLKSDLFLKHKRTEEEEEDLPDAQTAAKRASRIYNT
# UniProt O60427: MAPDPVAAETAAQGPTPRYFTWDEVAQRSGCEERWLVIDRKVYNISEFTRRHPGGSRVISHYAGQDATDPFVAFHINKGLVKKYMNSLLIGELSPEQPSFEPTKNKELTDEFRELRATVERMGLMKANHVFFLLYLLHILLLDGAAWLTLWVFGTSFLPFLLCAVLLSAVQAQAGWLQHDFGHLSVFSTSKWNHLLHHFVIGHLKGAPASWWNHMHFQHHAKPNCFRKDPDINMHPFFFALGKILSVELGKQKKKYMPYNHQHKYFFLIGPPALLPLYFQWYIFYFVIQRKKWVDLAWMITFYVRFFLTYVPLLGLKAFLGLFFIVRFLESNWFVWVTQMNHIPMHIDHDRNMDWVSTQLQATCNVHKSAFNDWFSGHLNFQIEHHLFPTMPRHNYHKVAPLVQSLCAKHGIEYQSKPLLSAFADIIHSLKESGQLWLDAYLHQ
# This is one part of the list. This is a noisy data set.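 Many melting curves are irregular; where none melted, Tm was taken as 64 °C.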
# Compound: CCc1cnccc1C(=O)Nc1cc2c(cc1F)NC(=O)CC2
# Experiment: melting temperature shift (DMSO Tm minus MBE1-treated Tm) in cellular thermal proteome profiling; higher = less thermal stabilization by MBE1 (negative = stabilized by MBE1)
# Details: A375; MBE1 concentration: 100 nM
row,Target,melting temperature shift
1,UniProt O43715,0.235 °C
2,KIF1B (UniProt O60333),0.763 °C
3,UniProt O75506,-2.8 °C
4,EIF4G3 (UniProt O43432),-0.671 °C
5,AP1G1 (UniProt O43747),0.513 °C
6,CCNT1 (UniProt O60563),-0.177 °C
7,PSMD10 (UniProt O75832),-0.342 °C
8,RANBP6 (UniProt O60518),-0.194 °C
9,KDM4A (UniProt O75164),-4.65 °C
10,CRTAP (UniProt O75718),0.711 °C
11,AHCYL1 (UniProt O43865),-0.0201 °C
12,UniProt O60711,2.1 °C
13,WDR1 (UniProt O75083),-0.396 °C
14,DNPH1 (UniProt O43598),-6.51 °C
15,EVI5 (UniProt O60447),-0.128 °C
16,UniProt O60739,-3.71 °C
17,BUB1B (UniProt O60566),-0.0988 °C
18,UniProt O75326,-1.41 °C
19,CDC45 (UniProt O75419),-0.878 °C

row,Target,melting temperature shift
1,RNGTT (UniProt O60942),-0.865 °C
2,B4GAT1 (UniProt O43505),-0.503 °C
3,UniProt O75354,-2.37 °C
4,VAMP4 (UniProt O75379),-3.91 °C
5,SH3BGRL (UniProt O75368),-0.161 °C
6,RRP9 (UniProt O43818),-0.801 °C
7,PHACTR2 (UniProt O75167),-0.323 °C
8,UniProt O60266,0.824 °C
9,MRPS14 (UniProt O60783),-0.189 °C
10,DHX16 (UniProt O60231),1.67 °C
11,PDCD6 (UniProt O75340),-1.16 °C
12,NDUFS3 (UniProt O75489),-0.791 °C
13,RGS10 (UniProt O43665),-0.955 °C
14,EED (UniProt O75530),-2.73 °C
15,FAM20B (UniProt O75063),0.91 °C
16,FADS1 (UniProt O60427),0.36 °C
17,EXOC3 (UniProt O60645),-0.4 °C
18,MTX2 (UniProt O75431),-0.952 °C
19,NEMF (UniProt O60524),0.488 °C

# Same assay, conditions: A375; MBE1 concentration: 1 uM
row,Target,melting temperature shift
1,UniProt O43715,-5.01 °C
2,KIF1B (UniProt O60333),0.409 °C
3,UniProt O75506,-1.74 °C
4,EIF4G3 (UniProt O43432),-0.263 °C
5,AP1G1 (UniProt O43747),-0.153 °C
6,CCNT1 (UniProt O60563),0.806 °C
7,PSMD10 (UniProt O75832),-0.391 °C
8,RANBP6 (UniProt O60518),0.318 °C
9,KDM4A (UniProt O75164),-5.67 °C
10,CRTAP (UniProt O75718),0.0268 °C
11,AHCYL1 (UniProt O43865),0.349 °C
12,UniProt O60711,-1.4 °C
13,WDR1 (UniProt O75083),-0.241 °C
14,DNPH1 (UniProt O43598),-3.77 °C
15,EVI5 (UniProt O60447),0.208 °C
16,UniProt O60739,-0.0183 °C
17,BUB1B (UniProt O60566),-0.372 °C
18,UniProt O75326,-1.25 °C
19,CDC45 (UniProt O75419),-0.436 °C

row,Target,melting temperature shift
1,RNGTT (UniProt O60942),-0.638 °C
2,B4GAT1 (UniProt O43505),0.684 °C
3,UniProt O75354,-1.98 °C
4,VAMP4 (UniProt O75379),2.45 °C
5,SH3BGRL (UniProt O75368),0.148 °C
6,RRP9 (UniProt O43818),0 °C
7,PHACTR2 (UniProt O75167),0.409 °C
8,UniProt O60266,-2.32 °C
9,MRPS14 (UniProt O60783),0.626 °C
10,DHX16 (UniProt O60231),0.623 °C
11,PDCD6 (UniProt O75340),-0.751 °C
12,NDUFS3 (UniProt O75489),0.0794 °C
13,RGS10 (UniProt O43665),0.525 °C
14,EED (UniProt O75530),-3.8 °C
15,FAM20B (UniProt O75063),0.348 °C
16,FADS1 (UniProt O60427),-0.281 °C
17,EXOC3 (UniProt O60645),-0.103 °C
18,MTX2 (UniProt O75431),0 °C
19,NEMF (UniProt O60524),0.134 °C
